Laboratory results from patent US20260210971A1.
Results are given in words; binding and its absence hold for the method and conditions named. Some entries that bind do so weakly or less than the wild type.

Molecular target: T1, human TL1A C95S/C135S double mutant (human) (UniProt O95150)
T1 sequence: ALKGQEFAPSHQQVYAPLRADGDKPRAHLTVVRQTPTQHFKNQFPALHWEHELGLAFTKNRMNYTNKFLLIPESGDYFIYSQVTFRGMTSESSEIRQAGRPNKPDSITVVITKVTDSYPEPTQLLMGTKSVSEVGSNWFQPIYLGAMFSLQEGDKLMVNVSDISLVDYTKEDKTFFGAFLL
Experiment: co-crystal

binding: binds
B1: DR3 in the TL1A:DR3 crystal complex (receptor, UniProt Q93038 25-199, looked up)
chain: QGGTRSPRCDCAGDFHKKIGLFCCRGCPAGHYLKAPCTEPCGNSTCLVCPQDTFLAWENHHNSECARCQACDEQASQVALENCSAVADTRCGCKPGWFVECQVSQCVSSSPFYCQPCLDCGALHRHTRLLCSRRDTDCGTCLPGFYEHGDGCVSCPTSTLGSCPERCAAVCGWRQ
